Results from patent US20100172907A1.
Results are given in words; binding and its absence hold for the method and conditions named. Some binding calls cover weakened binding; strength is not graded here.

Chains of the proteins cited; added tags and fusions are not shown. Residues count along the entry.
UniProt P05067, residues 672-713: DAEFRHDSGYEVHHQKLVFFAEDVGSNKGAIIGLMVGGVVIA

What was measured:
[1] = biological target: amyloid plaques in cryostat sections of human temporal cortex (Alzheimer's disease) (human) (UniProt P05067); experiment: indirect immunofluorescence, AD brain sections, 0.05 and 0.01 µg/ml
[2] = biological target: amyloid plaques in cryostat sections of human temporal cortex (Alzheimer's disease) (human) (UniProt P05067); experiment: indirect immunofluorescence on cryostat sections of human AD temporal cortex, goat anti-human (H+L)-Cy3
[3] = biological target: amyloid plaques in cryostat sections of human temporal cortex (Alzheimer's disease) (human) (UniProt P05067); experiment: immunohistochemistry, AD brain sections

Row | binding [1] | binding [2] | binding [3] | Binder
1 | binds | binds |  | MS-R #7.9.H7 IgG1 (antibody, V domains shown) VH: QVELVESGGGLVQPGGSLRLSCAASGFTFSSYAMSWVRQAPGKGLEWVSAINASGTRTYYADSVKGRFTISRDNSKNTLYLQMNSLRAEDTAVYYCARGKGNTHKPYGYVRYFDVWGQGTLVTVSS VL: DIVLTQSPATLSLSPGERATLSCRASQSVSSSYLAWYQQKPGQAPRLLIYGASSRATGVPARFSGSGSGTDFTLTISSLEPEDFATYYCLQIYNMPITFGQGTKVEIKR
2 |  |  | binds | MS-Roche #7.9.H3 Fab (Fab, V domains shown) VH: QVQLVESGGGLVQPGGSLRLSCAASGFTFSSYAMSWVRQAPGKGLEWVSAINYQGNRKYYADSVKGRFTISRDNSKNTLYLQMNSLRAEDTAVYYCARGKGNTHKPYGYVRYFDVWGQGTLVTVSS VL: DIVLTQSPATLSLSPGERATLSCRASQSVSSSYLAWYQQKPGQAPRLLIYGASSRATGVPARFSGSGSGTDFTLTISSLEPEDFATYYCLQIYNMPITFGQGTKVEIKR
3 |  |  | binds | MS-Roche #7.9.H2 Fab (Fab, V domains shown) VH: QVQLVESGGGLVQPGGSLRLSCAASGFTFSSYAMSWVRQAPGKGLEWVSAINADGNRKYYADSVKGRFTISRDNSKNTLYLQMNSLRAEDTAVYYCARGKGNTHKPYGYVRYFDVWGQGTLVTVSS VL: DIVLTQSPATLSLSPGERATLSCRASQSVSSSYLAWYQQKPGQAPRLLIYGASSRATGVPARFSGSGSGTDFTLTISSLEPEDFATYYCLQIYNMPITFGQGTKVEIKR
